Experimental data reported in article PMC5359460.
No constants are given. Whether binding was seen depends on the method and setting. Binding seen in cells or lysates may run through a third protein. Binding calls can cover weak binding; strength is not graded here.

T1: Syntaxin-2 (mouse (endogenous in cortical synaptosomes)) (UniProt Q00262)
T1 sequence: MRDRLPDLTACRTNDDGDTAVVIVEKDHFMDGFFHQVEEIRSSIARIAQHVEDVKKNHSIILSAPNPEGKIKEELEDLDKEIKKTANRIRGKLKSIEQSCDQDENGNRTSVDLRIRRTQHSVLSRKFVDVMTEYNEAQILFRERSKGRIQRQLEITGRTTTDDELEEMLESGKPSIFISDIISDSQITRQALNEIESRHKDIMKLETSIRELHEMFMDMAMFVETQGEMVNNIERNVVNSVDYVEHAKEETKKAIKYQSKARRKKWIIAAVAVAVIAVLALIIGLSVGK

B1: Syntaxin-2 (protein, UniProt Q00262 1-289)
chain: MRDRLPDLTACRTNDDGDTAVVIVEKDHFMDGFFHQVEEIRSSIARIAQHVEDVKKNHSIILSAPNPEGKIKEELEDLDKEIKKTANRIRGKLKSIEQSCDQDENGNRTSVDLRIRRTQHSVLSRKFVDVMTEYNEAQILFRERSKGRIQRQLEITGRTTTDDELEEMLESGKPSIFISDIISDSQITRQALNEIESRHKDIMKLETSIRELHEMFMDMAMFVETQGEMVNNIERNVVNSVDYVEHAKEETKKAIKYQSKARRKKWIIAAVAVAVIAVLALIIGLSVGK

Key:
[1] = biological target: T1, Syntaxin-2 (mouse (endogenous in cortical synaptosomes)); assay: co-IP; immunoprecipitation of Syntaxin-1, Syntaxin-2 or Snap25 from purified cortical synaptosomal lysates of adult mice (500 ug of total lysate); JNK detected by western blotting
[2] = biological target: c-Jun N-terminal kinase (mouse (endogenous in cortical synaptosomes)); assay: co-IP; reverse immunoprecipitation of JNK (anti-JNK) from purified cortical synaptosomal lysates of adult mice (500 ug of total lysate); Syntaxin-1, Syntaxin-2 and Snap25 detected by western blotting

Molecule | binding [1] | binding [2]
c-Jun N-terminal kinase (enzyme) | binds | 
B1 |  | binds
